No constants are given. Whether binding was seen depends on the method and setting. Binding seen in cells or lysates may run through a third protein. Some binding calls cover weakened binding; strength is not graded here. For part of these data: Where a sequence is shown, tags or fusion partners need not be part of it. Values belong to the molecule of their own block, whether it stands above or below them.
Columns and labels:
[1] = target: T1, His-TRPS1 (transcriptional repressor GATA binding 1) (UniProt Q9UHF7); test: co-IP; exogenous co-IP; HEK-293T co-transfected with HA-PGR and His-TRPS1, or His-TRPS1 and Flag-HDAC2, for 36 h; lysates in HEGN buffer, antibody-coupled Dyna beads overnight at 4 °C, immunoblot
T1 sequence: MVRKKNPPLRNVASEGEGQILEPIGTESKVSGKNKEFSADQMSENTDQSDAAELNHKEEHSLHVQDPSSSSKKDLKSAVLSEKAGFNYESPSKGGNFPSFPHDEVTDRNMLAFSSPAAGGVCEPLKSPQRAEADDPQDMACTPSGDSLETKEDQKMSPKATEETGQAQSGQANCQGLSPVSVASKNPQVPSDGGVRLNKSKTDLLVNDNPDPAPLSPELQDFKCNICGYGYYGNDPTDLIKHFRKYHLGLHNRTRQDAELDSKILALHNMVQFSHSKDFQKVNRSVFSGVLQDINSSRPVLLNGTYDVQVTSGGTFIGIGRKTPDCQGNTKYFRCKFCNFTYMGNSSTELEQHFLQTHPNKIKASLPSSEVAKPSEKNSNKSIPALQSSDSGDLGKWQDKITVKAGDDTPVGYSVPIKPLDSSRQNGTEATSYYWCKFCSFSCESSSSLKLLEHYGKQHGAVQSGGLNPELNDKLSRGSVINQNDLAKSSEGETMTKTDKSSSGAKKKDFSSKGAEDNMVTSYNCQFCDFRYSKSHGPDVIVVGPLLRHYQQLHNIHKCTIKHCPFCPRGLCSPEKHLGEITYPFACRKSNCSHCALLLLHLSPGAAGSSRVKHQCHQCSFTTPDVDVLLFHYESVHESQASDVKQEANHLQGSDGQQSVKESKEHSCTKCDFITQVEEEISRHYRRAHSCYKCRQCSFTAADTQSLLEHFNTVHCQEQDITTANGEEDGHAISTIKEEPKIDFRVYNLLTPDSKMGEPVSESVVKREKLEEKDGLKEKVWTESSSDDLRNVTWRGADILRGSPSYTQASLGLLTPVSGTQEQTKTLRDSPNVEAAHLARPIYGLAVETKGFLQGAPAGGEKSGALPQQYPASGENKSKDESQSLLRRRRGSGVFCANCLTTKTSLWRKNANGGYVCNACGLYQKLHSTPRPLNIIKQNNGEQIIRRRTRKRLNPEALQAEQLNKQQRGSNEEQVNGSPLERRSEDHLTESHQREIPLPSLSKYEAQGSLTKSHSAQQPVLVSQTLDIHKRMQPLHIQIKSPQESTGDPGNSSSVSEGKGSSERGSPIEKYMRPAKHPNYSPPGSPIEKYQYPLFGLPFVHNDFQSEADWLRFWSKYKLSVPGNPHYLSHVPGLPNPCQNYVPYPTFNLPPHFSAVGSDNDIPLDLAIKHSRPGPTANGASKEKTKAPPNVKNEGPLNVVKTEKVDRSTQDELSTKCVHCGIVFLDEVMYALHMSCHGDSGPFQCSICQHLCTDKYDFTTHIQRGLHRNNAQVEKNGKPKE

Protein sequences, listed by entry. Tags and fused reporters are not part of them. Lines headed by an entry give the natural chain unless they say otherwise; changes in a name come on top.
UniProt P06401: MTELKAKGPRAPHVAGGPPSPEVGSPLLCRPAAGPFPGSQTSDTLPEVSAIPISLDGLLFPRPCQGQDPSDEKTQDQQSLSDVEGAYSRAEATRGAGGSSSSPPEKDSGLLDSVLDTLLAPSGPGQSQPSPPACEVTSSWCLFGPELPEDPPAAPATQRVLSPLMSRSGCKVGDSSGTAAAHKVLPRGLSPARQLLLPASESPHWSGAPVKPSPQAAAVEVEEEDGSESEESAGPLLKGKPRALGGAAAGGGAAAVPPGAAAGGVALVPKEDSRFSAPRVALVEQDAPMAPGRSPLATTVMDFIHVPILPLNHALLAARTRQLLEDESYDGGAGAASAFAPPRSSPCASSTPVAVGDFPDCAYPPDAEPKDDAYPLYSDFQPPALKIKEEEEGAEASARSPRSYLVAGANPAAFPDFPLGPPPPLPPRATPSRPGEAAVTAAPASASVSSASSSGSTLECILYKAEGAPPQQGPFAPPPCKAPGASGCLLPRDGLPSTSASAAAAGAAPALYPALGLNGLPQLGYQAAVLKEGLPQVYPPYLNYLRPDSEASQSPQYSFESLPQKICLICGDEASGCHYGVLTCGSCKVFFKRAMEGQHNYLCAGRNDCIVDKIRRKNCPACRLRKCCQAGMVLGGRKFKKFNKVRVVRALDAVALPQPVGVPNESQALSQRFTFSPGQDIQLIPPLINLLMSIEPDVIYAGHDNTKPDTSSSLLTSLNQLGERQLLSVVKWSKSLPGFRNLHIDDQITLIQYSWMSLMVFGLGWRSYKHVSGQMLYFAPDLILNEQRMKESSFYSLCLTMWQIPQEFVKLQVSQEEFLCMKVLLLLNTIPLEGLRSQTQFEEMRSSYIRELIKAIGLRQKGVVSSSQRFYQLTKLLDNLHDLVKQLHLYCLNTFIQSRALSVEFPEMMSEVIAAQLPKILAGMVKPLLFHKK
UniProt Q92769: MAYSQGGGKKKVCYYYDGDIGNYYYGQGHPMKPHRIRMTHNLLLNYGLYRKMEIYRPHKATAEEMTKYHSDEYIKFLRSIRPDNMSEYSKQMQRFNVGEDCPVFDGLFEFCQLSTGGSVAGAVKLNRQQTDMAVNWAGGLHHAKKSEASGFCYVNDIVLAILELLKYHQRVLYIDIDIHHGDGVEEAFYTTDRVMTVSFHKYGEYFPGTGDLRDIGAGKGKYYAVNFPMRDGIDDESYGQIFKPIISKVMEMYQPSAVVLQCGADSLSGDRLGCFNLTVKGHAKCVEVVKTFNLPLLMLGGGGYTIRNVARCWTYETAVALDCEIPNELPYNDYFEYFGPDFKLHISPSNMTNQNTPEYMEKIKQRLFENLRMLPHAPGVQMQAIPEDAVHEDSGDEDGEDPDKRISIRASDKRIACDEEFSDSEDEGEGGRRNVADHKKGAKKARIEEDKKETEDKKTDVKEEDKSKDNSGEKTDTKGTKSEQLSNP

[2] = target: T2, transcriptional repressor GATA binding 1 (endogenous) (human (endogenous in Ishikawa and T47D)) (UniProt Q9UHF7); test: co-IP; endogenous co-IP in T47D cells without MPA; lysates in HEGN buffer, antibody-coupled Dyna beads overnight at 4 °C, immunoblot
T2 sequence: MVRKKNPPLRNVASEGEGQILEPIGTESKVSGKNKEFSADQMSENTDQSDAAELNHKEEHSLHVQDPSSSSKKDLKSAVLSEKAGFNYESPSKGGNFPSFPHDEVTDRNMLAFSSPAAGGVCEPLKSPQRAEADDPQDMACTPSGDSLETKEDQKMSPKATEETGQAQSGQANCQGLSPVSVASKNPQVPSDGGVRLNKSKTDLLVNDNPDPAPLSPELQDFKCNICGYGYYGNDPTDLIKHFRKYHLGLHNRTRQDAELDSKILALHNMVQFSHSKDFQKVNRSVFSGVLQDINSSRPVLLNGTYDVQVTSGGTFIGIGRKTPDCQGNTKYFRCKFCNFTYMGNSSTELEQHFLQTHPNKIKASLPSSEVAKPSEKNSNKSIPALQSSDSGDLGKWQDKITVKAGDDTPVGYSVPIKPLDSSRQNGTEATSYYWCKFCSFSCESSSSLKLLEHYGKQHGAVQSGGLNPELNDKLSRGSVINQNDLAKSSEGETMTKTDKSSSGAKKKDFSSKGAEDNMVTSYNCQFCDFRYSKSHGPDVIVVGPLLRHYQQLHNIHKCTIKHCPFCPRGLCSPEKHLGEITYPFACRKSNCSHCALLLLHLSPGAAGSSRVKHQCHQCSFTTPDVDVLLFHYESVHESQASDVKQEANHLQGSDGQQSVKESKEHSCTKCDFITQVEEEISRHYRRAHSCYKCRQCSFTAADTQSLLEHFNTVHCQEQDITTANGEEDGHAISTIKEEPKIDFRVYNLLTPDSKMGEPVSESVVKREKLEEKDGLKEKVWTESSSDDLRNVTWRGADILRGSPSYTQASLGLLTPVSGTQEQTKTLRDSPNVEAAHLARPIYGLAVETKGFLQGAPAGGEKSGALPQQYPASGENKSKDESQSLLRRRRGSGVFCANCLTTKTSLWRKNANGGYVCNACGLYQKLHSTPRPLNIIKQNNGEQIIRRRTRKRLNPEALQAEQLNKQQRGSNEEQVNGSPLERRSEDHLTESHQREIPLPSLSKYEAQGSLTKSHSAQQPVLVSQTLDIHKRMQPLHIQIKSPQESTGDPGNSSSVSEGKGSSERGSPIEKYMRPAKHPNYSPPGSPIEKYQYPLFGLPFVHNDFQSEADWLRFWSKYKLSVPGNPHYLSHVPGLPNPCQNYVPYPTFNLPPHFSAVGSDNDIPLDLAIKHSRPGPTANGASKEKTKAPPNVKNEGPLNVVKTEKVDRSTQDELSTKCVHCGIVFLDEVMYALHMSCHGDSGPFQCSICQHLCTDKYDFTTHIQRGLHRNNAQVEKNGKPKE

[3] = target: T2, transcriptional repressor GATA binding 1 (endogenous) (human (endogenous in Ishikawa and T47D)); test: co-IP; endogenous co-IP in Ishikawa cells, with or without MPA treatment; lysates in HEGN buffer, antibody-coupled Dyna beads overnight at 4 °C, immunoblot
[4] = target: HA-PGR (progesterone receptor) (UniProt P06401); test: co-IP; exogenous co-IP; HEK-293T co-transfected with HA-PGR and His-TRPS1, or His-TRPS1 and Flag-HDAC2, for 36 h; lysates in HEGN buffer, antibody-coupled Dyna beads overnight at 4 °C, immunoblot
[5] = target: progesterone receptor (endogenous) (human (endogenous in Ishikawa and T47D)) (UniProt P06401); test: co-IP; endogenous co-IP in T47D cells without MPA; lysates in HEGN buffer, antibody-coupled Dyna beads overnight at 4 °C, immunoblot
[6] = target: progesterone receptor (endogenous) (human (endogenous in Ishikawa and T47D)) (UniProt P06401); test: co-IP; endogenous co-IP in Ishikawa cells, with or without MPA treatment; lysates in HEGN buffer, antibody-coupled Dyna beads overnight at 4 °C, immunoblot

Molecule: histone deacetylase 2 (endogenous) (from UniProt Q92769 1-488)
binding [2]: binds
binding [3]: binds

B2: transcriptional repressor GATA binding 1 (endogenous) (protein, UniProt Q9UHF7 1-1281)
chain: MVRKKNPPLRNVASEGEGQILEPIGTESKVSGKNKEFSADQMSENTDQSDAAELNHKEEHSLHVQDPSSSSKKDLKSAVLSEKAGFNYESPSKGGNFPSFPHDEVTDRNMLAFSSPAAGGVCEPLKSPQRAEADDPQDMACTPSGDSLETKEDQKMSPKATEETGQAQSGQANCQGLSPVSVASKNPQVPSDGGVRLNKSKTDLLVNDNPDPAPLSPELQDFKCNICGYGYYGNDPTDLIKHFRKYHLGLHNRTRQDAELDSKILALHNMVQFSHSKDFQKVNRSVFSGVLQDINSSRPVLLNGTYDVQVTSGGTFIGIGRKTPDCQGNTKYFRCKFCNFTYMGNSSTELEQHFLQTHPNKIKASLPSSEVAKPSEKNSNKSIPALQSSDSGDLGKWQDKITVKAGDDTPVGYSVPIKPLDSSRQNGTEATSYYWCKFCSFSCESSSSLKLLEHYGKQHGAVQSGGLNPELNDKLSRGSVINQNDLAKSSEGETMTKTDKSSSGAKKKDFSSKGAEDNMVTSYNCQFCDFRYSKSHGPDVIVVGPLLRHYQQLHNIHKCTIKHCPFCPRGLCSPEKHLGEITYPFACRKSNCSHCALLLLHLSPGAAGSSRVKHQCHQCSFTTPDVDVLLFHYESVHESQASDVKQEANHLQGSDGQQSVKESKEHSCTKCDFITQVEEEISRHYRRAHSCYKCRQCSFTAADTQSLLEHFNTVHCQEQDITTANGEEDGHAISTIKEEPKIDFRVYNLLTPDSKMGEPVSESVVKREKLEEKDGLKEKVWTESSSDDLRNVTWRGADILRGSPSYTQASLGLLTPVSGTQEQTKTLRDSPNVEAAHLARPIYGLAVETKGFLQGAPAGGEKSGALPQQYPASGENKSKDESQSLLRRRRGSGVFCANCLTTKTSLWRKNANGGYVCNACGLYQKLHSTPRPLNIIKQNNGEQIIRRRTRKRLNPEALQAEQLNKQQRGSNEEQVNGSPLERRSEDHLTESHQREIPLPSLSKYEAQGSLTKSHSAQQPVLVSQTLDIHKRMQPLHIQIKSPQESTGDPGNSSSVSEGKGSSERGSPIEKYMRPAKHPNYSPPGSPIEKYQYPLFGLPFVHNDFQSEADWLRFWSKYKLSVPGNPHYLSHVPGLPNPCQNYVPYPTFNLPPHFSAVGSDNDIPLDLAIKHSRPGPTANGASKEKTKAPPNVKNEGPLNVVKTEKVDRSTQDELSTKCVHCGIVFLDEVMYALHMSCHGDSGPFQCSICQHLCTDKYDFTTHIQRGLHRNNAQVEKNGKPKE
binding [5]: binds
binding [6]: binds

Second part, the molecule after the results:

binding [1]: binds
Molecule: Flag-HDAC2 (histone deacetylase 2) (from UniProt Q92769 1-488)

binding [4]: binds
B1: His-TRPS1 (transcriptional repressor GATA binding 1) (protein, UniProt Q9UHF7 1-1281)
chain: MVRKKNPPLRNVASEGEGQILEPIGTESKVSGKNKEFSADQMSENTDQSDAAELNHKEEHSLHVQDPSSSSKKDLKSAVLSEKAGFNYESPSKGGNFPSFPHDEVTDRNMLAFSSPAAGGVCEPLKSPQRAEADDPQDMACTPSGDSLETKEDQKMSPKATEETGQAQSGQANCQGLSPVSVASKNPQVPSDGGVRLNKSKTDLLVNDNPDPAPLSPELQDFKCNICGYGYYGNDPTDLIKHFRKYHLGLHNRTRQDAELDSKILALHNMVQFSHSKDFQKVNRSVFSGVLQDINSSRPVLLNGTYDVQVTSGGTFIGIGRKTPDCQGNTKYFRCKFCNFTYMGNSSTELEQHFLQTHPNKIKASLPSSEVAKPSEKNSNKSIPALQSSDSGDLGKWQDKITVKAGDDTPVGYSVPIKPLDSSRQNGTEATSYYWCKFCSFSCESSSSLKLLEHYGKQHGAVQSGGLNPELNDKLSRGSVINQNDLAKSSEGETMTKTDKSSSGAKKKDFSSKGAEDNMVTSYNCQFCDFRYSKSHGPDVIVVGPLLRHYQQLHNIHKCTIKHCPFCPRGLCSPEKHLGEITYPFACRKSNCSHCALLLLHLSPGAAGSSRVKHQCHQCSFTTPDVDVLLFHYESVHESQASDVKQEANHLQGSDGQQSVKESKEHSCTKCDFITQVEEEISRHYRRAHSCYKCRQCSFTAADTQSLLEHFNTVHCQEQDITTANGEEDGHAISTIKEEPKIDFRVYNLLTPDSKMGEPVSESVVKREKLEEKDGLKEKVWTESSSDDLRNVTWRGADILRGSPSYTQASLGLLTPVSGTQEQTKTLRDSPNVEAAHLARPIYGLAVETKGFLQGAPAGGEKSGALPQQYPASGENKSKDESQSLLRRRRGSGVFCANCLTTKTSLWRKNANGGYVCNACGLYQKLHSTPRPLNIIKQNNGEQIIRRRTRKRLNPEALQAEQLNKQQRGSNEEQVNGSPLERRSEDHLTESHQREIPLPSLSKYEAQGSLTKSHSAQQPVLVSQTLDIHKRMQPLHIQIKSPQESTGDPGNSSSVSEGKGSSERGSPIEKYMRPAKHPNYSPPGSPIEKYQYPLFGLPFVHNDFQSEADWLRFWSKYKLSVPGNPHYLSHVPGLPNPCQNYVPYPTFNLPPHFSAVGSDNDIPLDLAIKHSRPGPTANGASKEKTKAPPNVKNEGPLNVVKTEKVDRSTQDELSTKCVHCGIVFLDEVMYALHMSCHGDSGPFQCSICQHLCTDKYDFTTHIQRGLHRNNAQVEKNGKPKE
